Data reported in the supplement of paper PMC10849652.
The other results are listed elsewhere or left out.

Sequences of proteins named here, by UniProt entry; tags and fusion partners are left off. A change or cut given only in a name is not applied to a line headed by its entry.
UniProt Q19AV6: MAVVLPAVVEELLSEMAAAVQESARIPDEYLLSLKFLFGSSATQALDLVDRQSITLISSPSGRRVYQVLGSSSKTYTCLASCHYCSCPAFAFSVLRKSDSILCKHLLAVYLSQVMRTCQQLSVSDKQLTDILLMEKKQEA
UniProt J3KR51, whole entry, looked up: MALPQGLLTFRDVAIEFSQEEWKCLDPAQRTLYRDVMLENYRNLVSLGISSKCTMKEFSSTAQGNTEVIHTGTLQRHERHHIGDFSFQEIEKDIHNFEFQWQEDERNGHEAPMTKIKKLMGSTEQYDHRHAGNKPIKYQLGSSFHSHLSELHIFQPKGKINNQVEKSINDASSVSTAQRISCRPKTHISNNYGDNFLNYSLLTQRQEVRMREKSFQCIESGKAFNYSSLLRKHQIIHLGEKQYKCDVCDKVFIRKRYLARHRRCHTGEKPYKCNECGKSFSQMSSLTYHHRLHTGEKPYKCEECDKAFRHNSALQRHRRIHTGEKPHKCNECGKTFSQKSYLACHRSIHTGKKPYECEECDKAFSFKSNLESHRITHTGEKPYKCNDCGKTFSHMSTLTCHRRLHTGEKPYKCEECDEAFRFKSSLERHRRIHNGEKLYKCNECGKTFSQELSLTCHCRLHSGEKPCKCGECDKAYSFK
UniProt Q96IR2: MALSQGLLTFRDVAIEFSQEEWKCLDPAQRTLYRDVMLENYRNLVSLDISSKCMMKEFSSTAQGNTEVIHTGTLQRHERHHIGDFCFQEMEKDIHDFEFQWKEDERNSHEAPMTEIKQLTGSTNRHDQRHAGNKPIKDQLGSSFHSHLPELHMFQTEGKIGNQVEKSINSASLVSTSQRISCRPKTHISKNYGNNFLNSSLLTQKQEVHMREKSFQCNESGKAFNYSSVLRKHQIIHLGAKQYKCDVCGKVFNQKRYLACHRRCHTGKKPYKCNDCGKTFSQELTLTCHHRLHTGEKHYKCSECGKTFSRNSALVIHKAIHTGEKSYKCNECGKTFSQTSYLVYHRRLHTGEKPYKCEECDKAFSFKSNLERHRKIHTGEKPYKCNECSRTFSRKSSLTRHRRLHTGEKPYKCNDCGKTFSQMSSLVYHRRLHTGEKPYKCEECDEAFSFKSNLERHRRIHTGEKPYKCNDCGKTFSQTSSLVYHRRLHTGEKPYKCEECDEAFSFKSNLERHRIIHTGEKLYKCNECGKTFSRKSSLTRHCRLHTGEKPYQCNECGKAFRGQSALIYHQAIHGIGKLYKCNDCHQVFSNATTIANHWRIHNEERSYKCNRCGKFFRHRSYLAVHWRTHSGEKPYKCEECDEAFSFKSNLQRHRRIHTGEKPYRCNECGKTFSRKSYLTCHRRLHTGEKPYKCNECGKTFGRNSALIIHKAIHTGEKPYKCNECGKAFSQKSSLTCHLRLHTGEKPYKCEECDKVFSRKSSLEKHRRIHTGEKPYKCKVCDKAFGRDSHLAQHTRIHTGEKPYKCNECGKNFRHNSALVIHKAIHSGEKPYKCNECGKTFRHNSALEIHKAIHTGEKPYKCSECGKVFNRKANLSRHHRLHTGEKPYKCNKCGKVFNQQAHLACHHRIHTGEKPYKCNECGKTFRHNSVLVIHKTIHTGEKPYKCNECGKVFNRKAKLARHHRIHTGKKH
UniProt Q6DD87: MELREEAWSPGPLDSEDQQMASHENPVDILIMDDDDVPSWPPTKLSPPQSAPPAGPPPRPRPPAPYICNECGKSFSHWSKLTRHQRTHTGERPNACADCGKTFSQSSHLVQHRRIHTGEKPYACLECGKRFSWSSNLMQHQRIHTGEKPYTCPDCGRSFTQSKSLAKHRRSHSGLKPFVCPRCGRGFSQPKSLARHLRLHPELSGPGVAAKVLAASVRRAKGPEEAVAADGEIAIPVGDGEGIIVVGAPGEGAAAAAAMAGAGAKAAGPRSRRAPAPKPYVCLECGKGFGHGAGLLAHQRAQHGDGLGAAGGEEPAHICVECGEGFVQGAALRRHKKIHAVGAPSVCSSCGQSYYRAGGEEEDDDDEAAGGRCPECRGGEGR
UniProt P52747: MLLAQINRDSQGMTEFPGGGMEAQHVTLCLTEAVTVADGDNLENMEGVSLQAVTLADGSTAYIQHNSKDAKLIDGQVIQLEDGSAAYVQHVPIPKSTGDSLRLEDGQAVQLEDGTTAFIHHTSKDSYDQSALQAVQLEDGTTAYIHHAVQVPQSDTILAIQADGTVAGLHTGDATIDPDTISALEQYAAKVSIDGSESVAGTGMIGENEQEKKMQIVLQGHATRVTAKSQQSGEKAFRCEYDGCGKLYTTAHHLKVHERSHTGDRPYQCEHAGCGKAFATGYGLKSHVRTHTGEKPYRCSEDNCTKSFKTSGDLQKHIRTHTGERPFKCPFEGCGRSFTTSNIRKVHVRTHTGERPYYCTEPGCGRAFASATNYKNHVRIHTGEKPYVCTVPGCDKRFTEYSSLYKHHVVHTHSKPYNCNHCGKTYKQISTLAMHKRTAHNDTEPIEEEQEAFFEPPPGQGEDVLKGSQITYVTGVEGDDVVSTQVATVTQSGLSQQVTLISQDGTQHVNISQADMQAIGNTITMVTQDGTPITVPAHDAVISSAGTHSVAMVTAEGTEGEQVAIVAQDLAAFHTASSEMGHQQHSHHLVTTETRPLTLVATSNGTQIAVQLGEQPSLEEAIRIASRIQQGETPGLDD
UniProt Q15649: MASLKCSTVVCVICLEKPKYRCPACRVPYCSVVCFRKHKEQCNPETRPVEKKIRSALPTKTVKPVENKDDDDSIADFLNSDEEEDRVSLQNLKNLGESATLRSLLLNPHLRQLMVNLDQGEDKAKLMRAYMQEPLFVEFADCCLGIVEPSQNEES
UniProt Q8N720: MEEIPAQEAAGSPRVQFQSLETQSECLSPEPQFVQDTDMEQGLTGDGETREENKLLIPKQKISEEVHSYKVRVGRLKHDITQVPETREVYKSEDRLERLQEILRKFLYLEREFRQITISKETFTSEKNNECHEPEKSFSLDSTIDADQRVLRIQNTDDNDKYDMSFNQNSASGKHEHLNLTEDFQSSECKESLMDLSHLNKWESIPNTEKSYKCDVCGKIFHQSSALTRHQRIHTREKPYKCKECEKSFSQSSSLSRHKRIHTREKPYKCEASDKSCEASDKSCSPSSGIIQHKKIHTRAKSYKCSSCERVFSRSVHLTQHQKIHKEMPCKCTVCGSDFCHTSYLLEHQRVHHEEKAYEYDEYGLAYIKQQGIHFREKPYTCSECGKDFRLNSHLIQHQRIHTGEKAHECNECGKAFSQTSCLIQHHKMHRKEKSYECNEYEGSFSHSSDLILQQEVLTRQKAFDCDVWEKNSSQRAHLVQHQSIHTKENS
UniProt Q86YH2: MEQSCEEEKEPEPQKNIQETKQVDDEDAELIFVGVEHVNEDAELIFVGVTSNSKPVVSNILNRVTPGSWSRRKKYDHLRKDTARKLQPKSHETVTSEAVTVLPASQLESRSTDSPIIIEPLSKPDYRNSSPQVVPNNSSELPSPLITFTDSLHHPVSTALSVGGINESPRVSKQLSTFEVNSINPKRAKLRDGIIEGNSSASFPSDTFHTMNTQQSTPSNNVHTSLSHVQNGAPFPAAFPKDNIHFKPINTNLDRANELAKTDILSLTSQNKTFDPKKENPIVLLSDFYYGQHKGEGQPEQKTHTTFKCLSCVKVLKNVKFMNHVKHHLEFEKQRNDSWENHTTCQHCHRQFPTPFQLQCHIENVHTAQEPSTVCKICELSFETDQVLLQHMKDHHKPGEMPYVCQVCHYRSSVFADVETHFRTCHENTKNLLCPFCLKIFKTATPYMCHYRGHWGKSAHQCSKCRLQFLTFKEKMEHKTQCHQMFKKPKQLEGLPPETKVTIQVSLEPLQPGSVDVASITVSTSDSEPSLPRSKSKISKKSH
UniProt P59923: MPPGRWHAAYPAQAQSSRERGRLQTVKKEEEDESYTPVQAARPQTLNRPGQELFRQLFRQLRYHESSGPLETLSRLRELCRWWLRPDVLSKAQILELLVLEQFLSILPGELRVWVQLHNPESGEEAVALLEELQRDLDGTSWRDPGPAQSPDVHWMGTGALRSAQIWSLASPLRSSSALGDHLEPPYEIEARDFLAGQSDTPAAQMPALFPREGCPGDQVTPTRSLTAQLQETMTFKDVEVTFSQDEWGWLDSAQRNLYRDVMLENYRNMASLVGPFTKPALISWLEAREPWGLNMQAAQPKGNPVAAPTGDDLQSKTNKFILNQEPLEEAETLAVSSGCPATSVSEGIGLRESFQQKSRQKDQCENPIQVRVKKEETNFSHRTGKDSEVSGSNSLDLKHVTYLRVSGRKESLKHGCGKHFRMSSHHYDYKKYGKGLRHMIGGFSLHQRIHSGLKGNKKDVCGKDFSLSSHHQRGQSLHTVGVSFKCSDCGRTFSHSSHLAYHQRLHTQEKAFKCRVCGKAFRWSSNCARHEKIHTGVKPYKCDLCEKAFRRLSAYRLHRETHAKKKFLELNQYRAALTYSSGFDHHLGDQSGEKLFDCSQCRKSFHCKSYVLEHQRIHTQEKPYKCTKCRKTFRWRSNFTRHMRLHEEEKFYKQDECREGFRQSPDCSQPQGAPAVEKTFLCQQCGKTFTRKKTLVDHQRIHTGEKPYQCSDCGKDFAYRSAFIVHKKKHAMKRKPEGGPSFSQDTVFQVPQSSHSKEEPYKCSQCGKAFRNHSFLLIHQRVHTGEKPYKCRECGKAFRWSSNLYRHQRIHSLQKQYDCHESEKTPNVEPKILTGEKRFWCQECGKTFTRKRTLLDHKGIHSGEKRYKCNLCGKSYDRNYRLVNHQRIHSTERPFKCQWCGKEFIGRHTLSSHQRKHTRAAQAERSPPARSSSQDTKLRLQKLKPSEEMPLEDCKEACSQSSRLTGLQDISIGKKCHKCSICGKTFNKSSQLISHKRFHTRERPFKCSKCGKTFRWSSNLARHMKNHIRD
UniProt Q86UK7: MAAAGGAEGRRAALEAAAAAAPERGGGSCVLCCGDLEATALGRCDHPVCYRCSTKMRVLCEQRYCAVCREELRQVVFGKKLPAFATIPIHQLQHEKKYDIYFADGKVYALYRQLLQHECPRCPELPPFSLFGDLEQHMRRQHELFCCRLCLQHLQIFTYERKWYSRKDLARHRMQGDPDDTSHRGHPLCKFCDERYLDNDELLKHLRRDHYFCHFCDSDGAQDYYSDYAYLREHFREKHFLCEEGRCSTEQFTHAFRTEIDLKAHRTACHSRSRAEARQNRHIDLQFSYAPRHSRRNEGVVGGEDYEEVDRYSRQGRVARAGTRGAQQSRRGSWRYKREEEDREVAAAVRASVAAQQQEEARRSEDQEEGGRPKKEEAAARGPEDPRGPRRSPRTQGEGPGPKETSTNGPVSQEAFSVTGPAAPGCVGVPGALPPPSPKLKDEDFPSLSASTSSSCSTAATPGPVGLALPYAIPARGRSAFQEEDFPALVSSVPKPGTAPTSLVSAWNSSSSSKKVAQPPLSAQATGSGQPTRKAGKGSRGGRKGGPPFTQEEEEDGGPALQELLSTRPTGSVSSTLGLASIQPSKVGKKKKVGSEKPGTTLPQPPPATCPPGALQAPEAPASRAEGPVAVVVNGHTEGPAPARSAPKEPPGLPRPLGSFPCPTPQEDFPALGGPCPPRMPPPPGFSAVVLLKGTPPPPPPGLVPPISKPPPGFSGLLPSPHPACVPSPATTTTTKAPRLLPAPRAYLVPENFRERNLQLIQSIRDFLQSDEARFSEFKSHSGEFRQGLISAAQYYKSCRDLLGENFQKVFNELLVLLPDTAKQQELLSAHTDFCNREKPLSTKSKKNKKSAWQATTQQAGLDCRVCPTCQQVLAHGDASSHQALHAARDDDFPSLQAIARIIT
UniProt O00488: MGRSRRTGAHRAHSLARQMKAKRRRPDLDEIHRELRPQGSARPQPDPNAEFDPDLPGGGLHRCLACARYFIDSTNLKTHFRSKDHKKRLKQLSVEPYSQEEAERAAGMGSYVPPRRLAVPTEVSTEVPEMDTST
UniProt P17098: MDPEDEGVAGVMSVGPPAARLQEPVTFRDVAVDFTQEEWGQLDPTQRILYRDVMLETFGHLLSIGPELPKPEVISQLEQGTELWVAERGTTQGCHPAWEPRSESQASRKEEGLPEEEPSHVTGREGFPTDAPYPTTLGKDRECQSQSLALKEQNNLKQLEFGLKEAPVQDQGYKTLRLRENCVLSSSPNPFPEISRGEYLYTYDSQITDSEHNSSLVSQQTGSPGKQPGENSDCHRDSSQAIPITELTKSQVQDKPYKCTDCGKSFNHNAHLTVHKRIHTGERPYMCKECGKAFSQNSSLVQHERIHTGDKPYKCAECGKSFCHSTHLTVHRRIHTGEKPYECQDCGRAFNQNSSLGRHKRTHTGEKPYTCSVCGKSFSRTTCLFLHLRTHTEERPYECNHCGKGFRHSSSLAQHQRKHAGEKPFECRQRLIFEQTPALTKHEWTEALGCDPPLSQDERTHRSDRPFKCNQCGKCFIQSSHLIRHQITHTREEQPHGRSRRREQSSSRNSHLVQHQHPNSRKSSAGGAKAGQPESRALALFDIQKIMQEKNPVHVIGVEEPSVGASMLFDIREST

compound: NCC(=O)Nc1ccc(-n2nc(C(F)(F)F)cc2-c2ccc3c(ccc4ccccc43)c2)cc1; assay: log2 fold change, soluble protein after heating vs DMSO (PISA); higher = thermal stabilisation; K562 lysate, 10 uM; active = over 0.2 and 3.5 SD of the protein, either way, in both replicates (recomputed)
Summary of the method: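 Thermal stability, expressed as log-two fold change relative to solvent controls, is given from duplicates. Crude K562 extract in PBS pH 7.4 with 1 mM MgCl2, at 1 mg/mL protein, was treated with 10 μM compound for 30 min and heated in aliquots for 3 min across 48°C-58°C. After pooling, adjustment to 0.5% NP-40 at 4°C and centrifugation at 21,000xg for 90 min, supernatant protein was measured by TMTpro 16plex LC-MS/MS with channel sums equalised.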

Target	log2 fold change
ZNF148 (UniProt Q9UQR1)	inactive: 0.017
ZW10 (UniProt O43264)	inactive: 0.016
ZSWIM7 (UniProt Q19AV6)	inactive: 0.188
ZNF525 (UniProt J3KR51)	inactive: 0.066
ZNF845 (UniProt Q96IR2)	inactive: -0.074
ZNF692 isoform 5 (UniProt Q9BU19)	inactive: -0.085
ZMYM1 (UniProt Q5SVZ6)	inactive: -0.014
ZNF787 (UniProt Q6DD87)	inactive: 0.284
ZNF639 (UniProt Q9UID6)	inactive: -0.067
ZNF143 (UniProt P52747)	inactive: 0
ZNHIT3 (UniProt Q15649)	inactive: -0.037
ZNF655 isoform 2 (UniProt Q8N720)	inactive: -0.141
ZNF76 (UniProt P36508)	inactive: 0.083
ZNF239 (UniProt Q16600)	inactive: 0.105
ZMYM5 (UniProt Q9UJ78)	inactive: 0.103
ZNF629 (UniProt Q9UEG4)	inactive: -0.034
ZNF92 (UniProt Q03936)	inactive: 0.09

Target	log2 fold change
ZNF852 (UniProt Q6ZMS4)	inactive: 0.056
ZNF280B (UniProt Q86YH2)	inactive: -0.03
ZKSCAN4 (UniProt Q969J2)	inactive: -0.046
ZNF830 (UniProt Q96NB3)	inactive: -0.021
ZMYND8 isoform 19 (UniProt Q9ULU4)	inactive: 0.059
ZHX3 (UniProt Q9H4I2)	inactive: -0.196
ZNF512 (UniProt Q96ME7)	inactive: -0.129
ZNF445 (UniProt P59923)	inactive: 0.027
ZNF598 isoform 3 (UniProt Q86UK7)	inactive: 0.01
ZNF622 (UniProt Q969S3)	inactive: 0.007
ZNFX1 (UniProt Q9P2E3)	inactive: 0.143
ZMIZ1 (UniProt Q9ULJ6)	inactive: 0.007
ZNRD2 (UniProt G3V1B8)	inactive: -0.064
ZNF593 (UniProt O00488)	inactive: -0.029
ZNF8 (UniProt P17098)	inactive: -0.001
ZNF638 (UniProt Q14966)	inactive: 0.046

Looked up above.
In log2 fold change, ZNF8 (UniProt P17098) has the entry inactive: -0.001
In log2 fold change, ZNF830 (UniProt Q96NB3) has the entry inactive: -0.021
